Reference: the supplement of paper PMC6411743
± gives the standard deviation of the averaged measurements. Only a part is listed here, and it is no random draw.

The chains behind the UniProt entries cited, without tags or fusion partners. Where a name states a change or a piece, a line headed by the entry shows the natural chain unless it says otherwise.
UniProt Q9Y3B4: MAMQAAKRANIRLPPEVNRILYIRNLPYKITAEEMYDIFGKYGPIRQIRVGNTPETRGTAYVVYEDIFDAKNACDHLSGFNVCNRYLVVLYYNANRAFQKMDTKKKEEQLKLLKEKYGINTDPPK
UniProt Q9Y3D0: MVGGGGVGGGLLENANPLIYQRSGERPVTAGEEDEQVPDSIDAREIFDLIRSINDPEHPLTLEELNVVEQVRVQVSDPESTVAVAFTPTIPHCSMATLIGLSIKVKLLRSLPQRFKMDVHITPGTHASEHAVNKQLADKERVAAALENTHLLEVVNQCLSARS
UniProt Q9Y2Z4: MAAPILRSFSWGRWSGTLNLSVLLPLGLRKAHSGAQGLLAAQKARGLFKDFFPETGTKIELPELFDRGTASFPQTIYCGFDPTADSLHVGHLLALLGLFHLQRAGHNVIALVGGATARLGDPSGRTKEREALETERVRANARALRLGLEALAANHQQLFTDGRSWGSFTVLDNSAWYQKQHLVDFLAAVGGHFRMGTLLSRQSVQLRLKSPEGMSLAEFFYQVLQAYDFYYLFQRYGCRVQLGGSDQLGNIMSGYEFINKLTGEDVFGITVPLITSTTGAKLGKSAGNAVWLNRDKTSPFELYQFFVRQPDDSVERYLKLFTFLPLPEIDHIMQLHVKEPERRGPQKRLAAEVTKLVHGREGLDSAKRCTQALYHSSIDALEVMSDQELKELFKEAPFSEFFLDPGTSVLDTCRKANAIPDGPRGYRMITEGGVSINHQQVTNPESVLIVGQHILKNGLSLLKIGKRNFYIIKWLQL
UniProt Q9Y487, whole entry: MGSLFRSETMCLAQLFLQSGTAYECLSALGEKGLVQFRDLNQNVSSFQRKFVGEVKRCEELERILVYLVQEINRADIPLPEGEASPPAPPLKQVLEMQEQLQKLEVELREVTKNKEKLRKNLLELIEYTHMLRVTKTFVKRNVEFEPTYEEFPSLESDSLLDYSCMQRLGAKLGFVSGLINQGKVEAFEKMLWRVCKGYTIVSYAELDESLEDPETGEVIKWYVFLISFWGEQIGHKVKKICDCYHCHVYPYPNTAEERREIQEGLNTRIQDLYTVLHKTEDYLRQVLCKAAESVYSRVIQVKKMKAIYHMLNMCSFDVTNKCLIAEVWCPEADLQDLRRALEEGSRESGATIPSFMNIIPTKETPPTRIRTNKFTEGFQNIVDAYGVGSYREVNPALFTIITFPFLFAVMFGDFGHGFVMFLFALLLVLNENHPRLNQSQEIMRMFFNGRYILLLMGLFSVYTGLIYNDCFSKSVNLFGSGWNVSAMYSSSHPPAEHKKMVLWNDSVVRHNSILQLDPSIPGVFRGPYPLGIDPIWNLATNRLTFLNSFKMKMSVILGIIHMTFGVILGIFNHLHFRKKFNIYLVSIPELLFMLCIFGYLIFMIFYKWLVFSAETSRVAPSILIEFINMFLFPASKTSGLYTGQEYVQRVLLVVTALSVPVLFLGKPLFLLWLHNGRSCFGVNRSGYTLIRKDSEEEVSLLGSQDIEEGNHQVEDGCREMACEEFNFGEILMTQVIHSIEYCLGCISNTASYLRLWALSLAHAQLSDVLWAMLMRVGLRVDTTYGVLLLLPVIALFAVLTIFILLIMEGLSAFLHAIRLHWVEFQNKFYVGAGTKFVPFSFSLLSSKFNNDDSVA
UniProt Q9Y5L0: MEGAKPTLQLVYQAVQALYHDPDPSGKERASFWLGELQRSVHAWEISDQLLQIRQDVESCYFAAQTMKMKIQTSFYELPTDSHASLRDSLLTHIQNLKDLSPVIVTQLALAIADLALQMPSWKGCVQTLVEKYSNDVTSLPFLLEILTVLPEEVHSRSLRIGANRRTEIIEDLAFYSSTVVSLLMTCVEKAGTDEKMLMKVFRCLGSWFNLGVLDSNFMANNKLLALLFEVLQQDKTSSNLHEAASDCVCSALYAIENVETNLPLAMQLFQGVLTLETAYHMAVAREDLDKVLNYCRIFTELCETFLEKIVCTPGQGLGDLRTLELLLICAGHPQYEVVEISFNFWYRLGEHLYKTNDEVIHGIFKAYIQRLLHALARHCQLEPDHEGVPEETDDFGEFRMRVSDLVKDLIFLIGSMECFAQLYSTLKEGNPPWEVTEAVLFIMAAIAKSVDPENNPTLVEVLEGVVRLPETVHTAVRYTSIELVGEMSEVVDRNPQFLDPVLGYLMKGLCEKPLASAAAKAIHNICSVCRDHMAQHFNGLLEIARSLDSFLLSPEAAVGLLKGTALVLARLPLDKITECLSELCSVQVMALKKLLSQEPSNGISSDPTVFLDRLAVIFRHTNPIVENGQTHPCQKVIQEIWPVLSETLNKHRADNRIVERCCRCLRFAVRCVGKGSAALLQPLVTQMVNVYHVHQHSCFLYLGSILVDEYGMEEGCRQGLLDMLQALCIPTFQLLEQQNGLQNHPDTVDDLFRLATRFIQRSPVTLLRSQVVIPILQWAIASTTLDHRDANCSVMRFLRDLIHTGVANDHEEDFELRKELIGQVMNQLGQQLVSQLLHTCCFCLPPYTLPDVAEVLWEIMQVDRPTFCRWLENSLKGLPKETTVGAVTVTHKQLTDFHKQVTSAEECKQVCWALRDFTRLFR
UniProt Q9Y3D2: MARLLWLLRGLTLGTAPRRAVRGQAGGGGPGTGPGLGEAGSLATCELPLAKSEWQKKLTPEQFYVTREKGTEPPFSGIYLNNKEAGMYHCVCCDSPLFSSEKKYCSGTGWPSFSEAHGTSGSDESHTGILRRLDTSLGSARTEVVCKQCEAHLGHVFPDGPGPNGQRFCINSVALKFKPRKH
UniProt Q9Y6J0: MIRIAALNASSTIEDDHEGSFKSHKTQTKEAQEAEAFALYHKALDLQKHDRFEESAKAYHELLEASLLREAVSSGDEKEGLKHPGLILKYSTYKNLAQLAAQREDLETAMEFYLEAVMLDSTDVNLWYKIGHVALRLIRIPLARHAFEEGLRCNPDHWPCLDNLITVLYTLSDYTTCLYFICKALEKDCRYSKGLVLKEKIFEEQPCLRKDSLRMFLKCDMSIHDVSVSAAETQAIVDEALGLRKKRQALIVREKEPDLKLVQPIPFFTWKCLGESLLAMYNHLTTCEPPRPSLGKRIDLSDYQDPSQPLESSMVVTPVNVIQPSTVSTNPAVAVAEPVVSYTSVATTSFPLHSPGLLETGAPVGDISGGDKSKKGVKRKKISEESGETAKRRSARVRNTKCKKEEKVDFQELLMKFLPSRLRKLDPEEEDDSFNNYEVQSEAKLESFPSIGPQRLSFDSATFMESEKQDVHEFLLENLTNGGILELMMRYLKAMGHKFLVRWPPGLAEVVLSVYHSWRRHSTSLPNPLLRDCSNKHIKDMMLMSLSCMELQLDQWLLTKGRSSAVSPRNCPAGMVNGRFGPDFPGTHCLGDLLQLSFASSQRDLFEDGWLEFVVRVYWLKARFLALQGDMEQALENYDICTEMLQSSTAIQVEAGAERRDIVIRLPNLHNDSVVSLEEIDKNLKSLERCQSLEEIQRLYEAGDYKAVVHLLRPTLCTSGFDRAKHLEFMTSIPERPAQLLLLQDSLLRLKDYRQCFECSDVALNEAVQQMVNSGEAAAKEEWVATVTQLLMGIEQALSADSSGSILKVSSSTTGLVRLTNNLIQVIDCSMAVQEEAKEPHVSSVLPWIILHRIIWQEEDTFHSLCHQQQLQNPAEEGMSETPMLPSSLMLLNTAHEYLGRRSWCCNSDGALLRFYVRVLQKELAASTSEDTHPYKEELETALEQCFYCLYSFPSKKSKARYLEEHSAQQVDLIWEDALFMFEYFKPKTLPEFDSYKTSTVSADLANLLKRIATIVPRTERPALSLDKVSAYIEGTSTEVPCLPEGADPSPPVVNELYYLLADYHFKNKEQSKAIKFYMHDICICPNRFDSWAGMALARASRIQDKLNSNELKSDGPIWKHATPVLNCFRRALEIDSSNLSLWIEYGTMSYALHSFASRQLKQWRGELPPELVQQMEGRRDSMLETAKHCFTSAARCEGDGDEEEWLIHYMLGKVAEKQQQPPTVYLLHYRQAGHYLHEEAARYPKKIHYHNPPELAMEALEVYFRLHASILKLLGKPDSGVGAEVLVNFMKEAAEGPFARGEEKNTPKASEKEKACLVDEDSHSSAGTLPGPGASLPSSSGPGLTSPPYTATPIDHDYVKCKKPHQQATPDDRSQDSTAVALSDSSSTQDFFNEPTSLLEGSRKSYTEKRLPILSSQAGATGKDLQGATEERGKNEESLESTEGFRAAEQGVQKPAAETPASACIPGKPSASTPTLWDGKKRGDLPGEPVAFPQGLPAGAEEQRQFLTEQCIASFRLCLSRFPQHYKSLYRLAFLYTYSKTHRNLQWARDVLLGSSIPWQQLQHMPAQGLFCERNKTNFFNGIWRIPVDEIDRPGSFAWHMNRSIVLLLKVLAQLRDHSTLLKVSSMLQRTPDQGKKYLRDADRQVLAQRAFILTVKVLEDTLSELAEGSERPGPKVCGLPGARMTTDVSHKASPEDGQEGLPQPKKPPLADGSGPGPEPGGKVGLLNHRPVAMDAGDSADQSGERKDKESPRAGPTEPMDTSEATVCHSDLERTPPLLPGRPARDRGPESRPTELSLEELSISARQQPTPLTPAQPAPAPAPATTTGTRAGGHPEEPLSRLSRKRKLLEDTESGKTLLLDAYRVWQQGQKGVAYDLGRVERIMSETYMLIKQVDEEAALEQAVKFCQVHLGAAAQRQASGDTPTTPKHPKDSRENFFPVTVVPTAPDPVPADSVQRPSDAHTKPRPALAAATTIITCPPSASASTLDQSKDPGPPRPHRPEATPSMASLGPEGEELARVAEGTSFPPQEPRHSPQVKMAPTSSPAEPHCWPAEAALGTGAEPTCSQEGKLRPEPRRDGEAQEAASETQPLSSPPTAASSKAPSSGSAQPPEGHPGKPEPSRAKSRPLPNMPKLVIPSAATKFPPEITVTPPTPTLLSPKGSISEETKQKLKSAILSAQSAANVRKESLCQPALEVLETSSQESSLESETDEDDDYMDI
UniProt Q9Y680: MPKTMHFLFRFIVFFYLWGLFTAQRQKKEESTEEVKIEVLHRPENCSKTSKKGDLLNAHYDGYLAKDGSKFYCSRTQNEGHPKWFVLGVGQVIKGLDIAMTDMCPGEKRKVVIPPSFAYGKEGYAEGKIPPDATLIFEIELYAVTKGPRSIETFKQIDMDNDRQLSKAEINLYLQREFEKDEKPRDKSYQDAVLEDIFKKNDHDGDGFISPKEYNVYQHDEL
UniProt Q9Y385: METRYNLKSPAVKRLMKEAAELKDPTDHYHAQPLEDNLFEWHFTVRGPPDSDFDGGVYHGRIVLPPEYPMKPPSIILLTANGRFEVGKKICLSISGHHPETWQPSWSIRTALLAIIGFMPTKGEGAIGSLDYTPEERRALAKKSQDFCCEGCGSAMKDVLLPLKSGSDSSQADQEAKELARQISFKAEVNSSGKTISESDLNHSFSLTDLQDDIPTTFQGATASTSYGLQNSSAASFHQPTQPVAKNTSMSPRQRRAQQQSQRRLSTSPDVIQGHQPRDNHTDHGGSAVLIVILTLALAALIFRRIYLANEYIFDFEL
UniProt Q9Y6X9: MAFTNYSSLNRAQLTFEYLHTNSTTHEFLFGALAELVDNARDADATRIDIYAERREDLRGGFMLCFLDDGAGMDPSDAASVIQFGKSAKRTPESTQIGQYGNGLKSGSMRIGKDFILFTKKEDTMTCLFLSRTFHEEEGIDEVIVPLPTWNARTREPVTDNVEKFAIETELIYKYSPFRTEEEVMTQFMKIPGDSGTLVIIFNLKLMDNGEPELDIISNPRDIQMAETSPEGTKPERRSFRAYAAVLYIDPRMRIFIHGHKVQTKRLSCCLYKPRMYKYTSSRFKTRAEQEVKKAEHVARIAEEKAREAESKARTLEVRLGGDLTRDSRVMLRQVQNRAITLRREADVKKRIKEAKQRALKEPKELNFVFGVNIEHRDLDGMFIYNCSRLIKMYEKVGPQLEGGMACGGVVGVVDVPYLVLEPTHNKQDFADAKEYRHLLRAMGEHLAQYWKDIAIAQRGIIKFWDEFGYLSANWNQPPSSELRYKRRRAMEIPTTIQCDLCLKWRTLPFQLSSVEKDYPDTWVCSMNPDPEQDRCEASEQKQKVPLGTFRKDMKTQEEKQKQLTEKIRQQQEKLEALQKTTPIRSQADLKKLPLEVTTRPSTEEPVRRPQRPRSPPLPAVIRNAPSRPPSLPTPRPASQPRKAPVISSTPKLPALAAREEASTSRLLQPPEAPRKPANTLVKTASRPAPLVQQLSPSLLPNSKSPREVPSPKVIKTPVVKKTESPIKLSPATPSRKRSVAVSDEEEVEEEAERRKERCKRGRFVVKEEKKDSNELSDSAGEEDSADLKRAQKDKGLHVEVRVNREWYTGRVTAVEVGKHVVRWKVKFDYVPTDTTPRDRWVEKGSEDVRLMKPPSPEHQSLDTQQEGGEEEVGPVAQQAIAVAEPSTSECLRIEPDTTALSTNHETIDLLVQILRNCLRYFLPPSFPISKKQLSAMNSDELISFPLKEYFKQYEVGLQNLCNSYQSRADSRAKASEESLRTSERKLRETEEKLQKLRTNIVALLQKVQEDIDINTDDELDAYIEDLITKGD

Compound: Nc1ncnc2c1ncn2[C@@H]1O[C@H](COP(=O)(O)OP(=O)(O)OP(=O)(O)O)[C@@H](O)[C@H]1O [adenosine triphosphate]
Test: NP40-soluble protein abundance relative to vehicle (solubility fold change) (ratio); higher = more soluble protein in presence of ATP
How it was run: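 Data come from three independent experiments in which Dounce-homogenised Jurkat crude lysate was treated at eight concentrations from 0.1 to 10 mM. Treatment ran 10 min at room temperature and then 3 min at 37 °C, after which 0.8% NP40 and benzonase were added for 60 min at 4 °C before ultracentrifugation. The supernatant underwent TMT labelling and LC-MS/MS, and vsn-normalised intensities were expressed as fold change against the detergent-processed vehicle in each replicate.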

Target | NP40-soluble protein abundance (concentration: 1mM) | NP40-soluble protein abundance (concentration: 2mM) | NP40-soluble protein abundance (concentration: 4mM) | NP40-soluble protein abundance (concentration: 6mM) | NP40-soluble protein abundance (concentration: 8mM) | NP40-soluble protein abundance (concentration: 10mM)
UniProt Q9Y3B4 | 1.12 ± 0.069 | 1.11 ± 0.059 | 1.2 ± 0.097 | 1.12 ± 0.054 | 1.23 ± 0.05 | 1.15 ± 0.1
UniProt Q9Y3D0 | 0.895 ± 0.11 | 0.949 ± 0.038 | 0.932 ± 0.056 | 0.951 ± 0.14 | 0.918 ± 0.058 | 0.85 ± 0.11
YARS2 (UniProt Q9Y2Z4) | 1.03 ± 0.082 | 1 ± 0.082 | 1.01 ± 0.085 | 0.938 ± 0.13 | 1.02 ± 0.085 | 0.976 ± 0.071
TIMM9 (UniProt Q9Y5J7) | 0.947 ± 0.055 | 0.926 ± 0.096 | 0.975 ± 0.046 | 1.02 ± 0.12 | 0.88 ± 0.013 | 0.853 ± 0.095
ATP6V0A2 (UniProt Q9Y487) | 1 ± 0.038 | 1.01 ± 0.058 | 0.981 ± 0.011 | 0.979 ± 0.093 | 0.992 ± 0.011 | 0.96 ± 0.038
TACC3 (UniProt Q9Y6A5) | 0.948 ± 0.04 | 0.952 ± 0.026 | 0.933 ± 0.033 | 0.978 ± 0.045 | 0.898 ± 0.017 | 0.913 ± 0.013
UniProt Q9Y5L0 and related entries | 0.955 ± 0.11 | 0.954 ± 0.082 | 0.922 ± 0.044 | 0.86 ± 0.12 | 0.926 ± 0.016 | 0.949 ± 0.059
MSRB2 (UniProt Q9Y3D2) | 1.04 ± 0.1 | 1.02 ± 0.095 | 0.986 ± 0.076 | 1.02 ± 0.088 | 0.99 ± 0.074 | 0.992 ± 0.056
UniProt Q9Y6J0 and related entries | 1.04 ± 0.088 | 0.98 ± 0.052 | 1 ± 0.042 | 1.02 ± 0.12 | 0.992 ± 0.041 | 1.05 ± 0.036
UniProt Q9Y680 and related entries | 1.03 ± 0.048 | 1.02 ± 0.014 | 0.991 ± 0.018 | 1.01 ± 0.019 | 0.976 ± 0.059 | 0.934 ± 0.045
UBE2J1 (UniProt Q9Y385) | 0.952 ± 0.03 | 0.944 ± 0.07 | 0.933 ± 0.063 | 0.962 ± 0.029 | 0.921 ± 0.063 | 0.928 ± 0.065
UniProt Q9Y6X9 and related entries | 1.04 ± 0.02 | 1.024 ± 0.0079 | 1.04 ± 0.031 | 1.04 ± 0.019 | 0.99 ± 0.033 | 1.02 ± 0.035
UniProt Q9Y316 and related entries | 1 ± 0.1 | 0.976 ± 0.099 | 0.976 ± 0.1 | 0.951 ± 0.17 | 0.995 ± 0.12 | 0.972 ± 0.052
UniProt Q9Y4P1 and related entries | 1.05 ± 0.15 | 1.01 ± 0.11 | 0.992 ± 0.1 | 0.928 ± 0.15 | 0.97 ± 0.086 | 0.999 ± 0.059
TRAF6 (UniProt Q9Y4K3) | 1.16 ± 0.25 | 1.15 ± 0.2 | 1.22 ± 0.2 | 1.11 ± 0.2 | 1.29 ± 0.1 | 1.24 ± 0.2

An excerpt of these results, as comma-separated lines:
Target,NP40-soluble protein abundance (concentration: 1mM),NP40-soluble protein abundance (concentration: 2mM),NP40-soluble protein abundance (concentration: 4mM),NP40-soluble protein abundance (concentration: 6mM),NP40-soluble protein abundance (concentration: 8mM),NP40-soluble protein abundance (concentration: 10mM)
MSRB2 (UniProt Q9Y3D2),1.04 ± 0.1,1.02 ± 0.095,0.986 ± 0.076,1.02 ± 0.088,0.99 ± 0.074,0.992 ± 0.056
UniProt Q9Y6J0 and related entries,1.04 ± 0.088,0.98 ± 0.052,1 ± 0.042,1.02 ± 0.12,0.992 ± 0.041,1.05 ± 0.036
